Reference: publication PMC12516318
No constants are given. Whether binding was seen depends on the method and setting. In cells and extracts the contact can be indirect. Some results given as binding are weak or reduced against the parent protein; the word gives no strength. For part of these data: Where a sequence is shown, tags or fusion partners need not be part of it.

Sequences of proteins named here, by UniProt entry; tags and fusion partners are left off.
UniProt O18334: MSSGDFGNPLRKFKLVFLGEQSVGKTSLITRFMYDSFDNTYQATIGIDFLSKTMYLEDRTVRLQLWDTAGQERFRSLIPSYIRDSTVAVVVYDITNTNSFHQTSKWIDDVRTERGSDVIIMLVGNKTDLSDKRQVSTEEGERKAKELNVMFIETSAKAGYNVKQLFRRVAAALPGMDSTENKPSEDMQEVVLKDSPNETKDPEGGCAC

Tests used:
Assay in all cases: co-IP; GFP-Trap agarose beads (Chromotek), overnight, on lysates of 100 adult heads co-expressing Spir::tdTom and a GFP fusion (nSyb-GAL4); lysis buffer 50 mM Tris pH 8.0, 150 mM KCl, 1 mM MgCl2, 1 mM EGTA, protease inhibitors, 10% glycerol; lysates treated with deoxycholic acid and Triton X-100; immunoblots for GFP and tdTom
[1] = target: T1, Rab11::GFP (Drosophila) (UniProt O18335)
T1 sequence: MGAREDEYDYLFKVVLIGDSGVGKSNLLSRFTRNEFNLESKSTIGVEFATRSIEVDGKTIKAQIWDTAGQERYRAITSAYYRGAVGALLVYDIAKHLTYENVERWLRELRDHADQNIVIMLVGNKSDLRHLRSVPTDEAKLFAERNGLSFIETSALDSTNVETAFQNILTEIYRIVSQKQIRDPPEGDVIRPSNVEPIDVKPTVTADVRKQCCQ

[2] = target: Rab6::GFP (Drosophila) (UniProt O18334)
[3] = target: T2, Capu::GFP (Cappuccino, Fmn-family formin) (Drosophila) (UniProt Q24120)
T2 sequence: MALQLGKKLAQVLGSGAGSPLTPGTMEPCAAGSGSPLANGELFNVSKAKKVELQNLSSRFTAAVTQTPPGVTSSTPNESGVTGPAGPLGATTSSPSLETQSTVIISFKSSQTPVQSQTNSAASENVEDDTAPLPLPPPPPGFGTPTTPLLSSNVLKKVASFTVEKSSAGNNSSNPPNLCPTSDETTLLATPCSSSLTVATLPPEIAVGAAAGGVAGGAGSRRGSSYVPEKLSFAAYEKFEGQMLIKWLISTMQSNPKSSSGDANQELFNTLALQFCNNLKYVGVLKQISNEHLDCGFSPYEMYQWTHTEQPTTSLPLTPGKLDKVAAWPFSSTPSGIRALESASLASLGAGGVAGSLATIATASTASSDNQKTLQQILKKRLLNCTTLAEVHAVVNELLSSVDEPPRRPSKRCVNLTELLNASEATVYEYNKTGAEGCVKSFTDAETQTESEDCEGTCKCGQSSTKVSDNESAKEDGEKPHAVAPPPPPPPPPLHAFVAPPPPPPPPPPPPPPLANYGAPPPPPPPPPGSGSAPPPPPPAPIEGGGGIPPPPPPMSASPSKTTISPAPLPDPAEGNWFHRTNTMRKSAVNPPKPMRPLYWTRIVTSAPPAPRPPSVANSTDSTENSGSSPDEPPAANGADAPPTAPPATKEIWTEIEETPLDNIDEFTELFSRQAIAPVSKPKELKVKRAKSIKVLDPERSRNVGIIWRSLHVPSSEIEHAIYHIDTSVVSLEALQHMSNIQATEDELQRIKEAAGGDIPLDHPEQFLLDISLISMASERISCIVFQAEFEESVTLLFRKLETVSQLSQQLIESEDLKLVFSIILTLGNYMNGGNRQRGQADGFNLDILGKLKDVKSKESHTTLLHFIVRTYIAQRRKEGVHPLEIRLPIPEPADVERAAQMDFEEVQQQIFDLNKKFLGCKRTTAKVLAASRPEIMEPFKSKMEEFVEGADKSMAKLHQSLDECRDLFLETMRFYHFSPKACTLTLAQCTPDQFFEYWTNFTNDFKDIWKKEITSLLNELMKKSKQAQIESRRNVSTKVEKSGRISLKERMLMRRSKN

B1: Spir::tdTom (full-length Spire with C-terminal tdTomato) (protein, UniProt Q9U1K1 1-1020)
chain: MTEHQAEEQADTPPTKVKATPTPTPSGKFKDAKEDAFLSTSPDSANGDAQHKLPADQLAMSSSAHPQQAGQARPLILQAFHRCSSPEQCVTLHDILDSFKAPLSEDQAWALIHQFAGLYHQVAVQAHTCAADYEAALPTGFELHFHRDGSVHFSGPDQLTPKEQLQQEQIPLPPQHDVIVDQPDHSASSSGDSSVINRAFDNSNHHHHHQHHHPPLVVSHRKIISELAEIVYTALDYNLPEDEECQVSQELENLFNFMTADETDDDCIDEGIDEGDKRWDDESEEERNDTKELEHIIETCRNHIKTTLPENHYRAVCRALVTETIELRVFLQQVLNNEAGAEKLIKASESSATTQQELAKLGFNDWARFWVQVIDELRRGVRLKKSNHERTPIEYELTPYEILMGDIRAKKYQLRKVMVNGDIPPRVKKDAHAMILEFIRSRPPLKKASDRQLGPPRMCEPSPREQLMESIRKGKELKQITPPEAPTLRERVLPSANSTLSRSRQRLIKVDFSKFQDDDLFYDENSISSSHSTAATHQHHPHFAEMHRCSQPKMPPYPFGGYMVPSQARQDCRETASLMRPRRTMEPAKQVPPPEEPSFTKDEYHKFYDTALESYDLATQCESRRASLRRHTIVGCQSNLDETHSMPPTRPESRQSDDVSKETPKRSPAEQTHPSDEGSSTSSLGPWNKSFMDKQTWMERGDDRLSVTLAEIVHIRSVMTKAELEGLPMDVRVKEDVEKRRVCFLCLRTRFSFFGPWGIQCKLCQRTVCAKCYTKMRIPSEHFRNVPLVLISPSLLSSPASSSTPSPSHHAQQAHSSSTGNIMDDQFPKSLIERLLRSESDRKTRSTVGSAPSSPKHQRSNMSTPGISVGPGASSSSAAATGQAVEALHDQATMSSSYSAAMRPSGVHQQQKQHYNNAMSRSMEGPRSLPVHSPAYRPLSNNSTLERKSRFSRGFNLFSSGSHLAQTQEQKENLRGEQVTVCNDCQGLVNEITSSVKQKRSSARNRTIQNLTLDLTPVWK
**Q.** B1 was tested. Which binding [1] did it give?
**A.** Its binding is “binds”.

**Q.** And the binding [2]?
**A.** The binding was “no binding”.

**Q.** And the binding [3]?
**A.** The binding was “binds”.
